Holding throughout (type): cell-based
Series [1] deals with Plasmodium Falciparum k1 strain. Kind of series: Chloroquine-resistant tropical malaria protozoa proliferation inhibition screening test. To be noted: EC50 rat L6 cells / EC50 Chloroquine-resistant malaria protozoa. The method, then:
In this experiment, Plasmodium Falciparum k1 strain protozoa were used. The medium used in the experiment was filter-sterilized RPMI-1640 medium. To the medium human serum was added to achieve 5% concentration. The protozoa was cultured under condition of O2 concentration 3%, CO2 concentration 4%, N2 concentration 93%, and temperature 37° C.
The cultured malaria infected red blood cells were collected by centrifugation, diluted with non-infected red blood cells, to achieve initial infection rate 0.15%. The hematocrit was 2.5%.
To each well in a 96-well culture plate, 200 μL malaria infected culture was added, and either test solution containing test compound at predefined concentration or DMSO having no test compound was added. Each test solution was prepared in duplicate. After 48 hours culture under 37° C., hypoxanthine labeled with radioactive tritium (^3H) of 0.5 μCi was added to each well. After culturing under same condition for 24 hours, the product was collected on a glass fiber filter and washed. The intensity of radiation was measured by Beta plate liquid scintillation counter (Wallac Inc.), to determine malaria protozoa infection rate in test compound samples and control samples.
Using the malaria protozoa infection rate, the proliferation inhibition rate was calculated according to the following equation to determine 50% proliferation inhibition concentration (EC50).
(§1) Proliferation inhibition rate(%)={1−(b−a)/(c−a)}×100
(§2) a: initial infection rate b: infection rate of test compound solution c: infection rate of the control

Series [2] deals with Trypanosoma brucei rhodensiense (STIB 900 strain). Kind of series: African trypanosoma protozoa proliferation inhibition screening test. As to conditions: EC50 rat L6 cells / EC50 African trypanosoma protozoa. The method, then: In this experiment, bloodstream form trypomastigote of Trypanosoma brucei rhodensiense (STIB 900 strain) was used. The medium used in the experiment was prepared as follows: to filter-sterilized MEM medium, 25 mM N-2-hydroxyethylpiperazine-2-ethane sulfonate (HEPES), 1 g/L glucose, 1% MEM nonessential amino acid, 0.2 mM 2-mercaptoethanol, 2 mM pyruvic calcium salt, 0.1 mM hypoxanthine, and 15% heat-treated horse serum were added. The protozoa was cultured under atmosphere of CO2 concentration 5% and temperature 37° C.
Either the compound of the invention or a positive control (melarsoprol) was dissolved into dimethylsulfoxide (DMSO) to prepare test solution having predefined concentration. To each well in a 96-well culture plate, medium containing 8×10^3 protozoa, and either test solution containing the test compound at predefined concentration or DMSO without compound was added. Then medium was added to achieve 100 μL. The test solution was duplicated.
The culture plate was cultured in an incubator for 72 hours, and the proliferation inhibition activity was examined. The activity was determined as follows. To each well, 10 μL Alamar blue water solution was added, then the plate was again cultured for 2 hours. Then the culture plate was mounted on a fluorescence microplate reader (Spectramax Gemeni XS; Molecular Devices Corporation, U.S.), and irradiated with 536 nm excitation wavelength to determine fluorescence at 588 nm. The trypanosoma infection rate of the sample containing the test composition and that of the control sample was calculated.
(§3) Using the protozoa infection rate thus obtained, the proliferation inhibition rate was calculated according to the following equation to determine 50% proliferation inhibition concentration (EC50).
as §1
(§4) a: initial infection rate b: infection rate of the test compound solution c: infection rate of the control

Series [3] has as its system Trypanosoma cruzi (Tulahuen C2C4 strain). Kind of series: American trypanosoma protozoa proliferation inhibition screening test. To be noted: EC50 rat L6 cells / EC50 American trypanosoma protozoa. The method, then: In this experiment, amastigote and trypomastigote of Trypanosoma cruzi (Tulahuen C2C4 strain) infected to rat L6 cells were used. The medium used in the experiment was prepared as follows: to RPMI 1640 medium containing L6 cells, L-glutamine (200 mM) and fetal bovine serum was added to achieve concentration of 1% and 10%, respectively. The culture was conducted under CO2 concentration 5% and temperature 37° C.
Either the compound of the invention or a positive control (benznidazole) was dissolved into DMSO to prepare test solution having predefined concentration. To each well in a 96-well culture plate, medium containing 5×10^3 protozoa was added and precultured for 48 hours. After replacing the medium, either the test solution containing compound of the invention in predefined concentration or DMSO without compound was added. The test solution was duplicated.
The plate was cultured in an incubator for 96 hours, and the proliferation inhibition activity was examined. The activity was determined as follows. To each well, 50 μL CPRG/Nonidet was added, then left for 2 to 6 hours. Then the culture plate was mounted on an absorption microplate reader to determine absorption at 540 nm. The trypanosoma infection rate of the sample containing the test compound and that of the control sample was calculated.
as §3, §1, §4

Series [4] concerns Leishmania donovani (MHOM/ET/67/L82 strain). Kind of series: Leishmania protozoa proliferation inhibition screening test. To be noted: EC50 rat L6 cells / EC50 leishmania protozoa. The method, then:
In this experiment, Leishmania donovani (MHOM/ET/67/L82 strain) was used. The protozoa were successively cultured in Syrian Golden hamsters to obtain amastigote. The medium used in the experiment was SM medium having heat-treated fetal bovine serum 10% added, and pH prepared to 5.4. The culture was conducted under CO2 concentration 5% and temperature 37° C.
Either the compound of the invention or a positive control (miltefosine) was dissolved into DMSO to prepare test solution having predefined concentration. To each well of a 96-well culture plate, medium containing predetermined number of protozoa was added and the culture was pre-treated. The concentration of amastigote was determined by CASY cell analyze system (Scharfe GMBH Co., Germany). Subsequently, either test solution containing compound of the invention in predefined concentration or DMSO without compound was added. The test solution was duplicated.
The plate was cultured in an incubator for 72 hours, and the proliferation inhibition activity was examined. The activity was determined as follows. To each well, 10 μL Alamar blue aqueous solution was added, then cultured again for 2 hours. Then the culture plate was mounted on a fluorescence microplate reader (Spectramax Gemeni XS; Molecular Devices Corporation, U.S), and irradiated 536 nm excitation wavelength to determine […] at 588 nm. The leishmania infection rate of the sample containing the test compound and that of the control sample was calculated.
as §3, §1, §2

SMILES strings stand for the structures.

In series [1], `CCN1C(=O)/C(=c2/s/c(=c3/nc4c(o3)=CC=CN4C)c(=O)n2CC)S/C1=N\c1scc[n+]1C` [Compound B-20] returned a Selective toxicity of 4079.
Turning to `CCn1c(=O)/c(=c2\nc3c(o2)=CC=CN3C)s/c1=C1\S/C(=N\c2scc[n+]2C)N(Cc2ccccc2)C1=O` [Compound B-22], the Selective toxicity in series [2] is given as 1323; in series [1] it was >18000.
`CCN1C(=O)/C(=c2/s/c(=C3/C=CC=CN3C)c(=O)n2CC)S/C1=N\c1sc2cc(OC)ccc2[n+]1C` [Compound B-28]: the Selective toxicity in series [3] is reported as 16.
Same read-out and setting: the same measure for `CCN1C(=O)/C(=c2/s/c(=C3/SCCN3C)c(=O)n2CC)S/C1=N\c1sc2cc(OC)ccc2[n+]1C` [Compound B-29]: 21.
Turning to `CCN1C(=O)/C(=c2/s/c(=C3/C=CC=CN3C)c(=O)n2CC)S/C1=N\c1sc2ccccc2[n+]1C` [Compound B-30], the Selective toxicity in series [3] turned out to be 10; in series [2] it was 119; in series [1], 627; in series [4] it was 68.
For the molecule `CCN1C(=O)/C(=c2/s/c(=C3/C=CC=CN3C)c(=O)n2CC)S/C1=N\c1sc2cc(F)ccc2[n+]1C` [Compound B-32], the values for the Selective toxicity in series [2], in series [1] and in series [4] were 100, 980 and 72, respectively.
Consider `CCN1C(=O)/C(=c2/s/c(=C3/SCCN3C)c(=O)n2CC)S/C1=N\c1sc2cc(F)ccc2[n+]1C` [Compound B-33], for which the Selective toxicity is 15 in series [3], 66 in series [2], 588 in series [1] and 49 in series [4].
With `C=CCN1C(=O)/C(=c2/s/c(=C3/SCCN3C)c(=O)n2CC)S/C1=N\c1sc2cc(Cl)ccc2[n+]1C` [Compound B-39], the Selective toxicity in series [3] was 26; in series [2], 26; in series [4], 76.

Source of the values: patent publication US20090076067A1, “PHARMACEUTICAL COMPOSITION COMPRISING AZARHODACYANINE COMPOUND AS ACTIVE INGREDIENT” (priority 2005, published 2009).
